{"source": "patent US7015246B2", "about": "“Benzofuran derivatives” (Bayer Aktiengesellschaft, priority 2001, dated 2006)", "test_system": "thyroid hormone-regulated promoter (TRE) luciferase in HepG2 hepatocarcinoma cell", "assay": "T3 promoter assay cell test (luciferase reporter)", "type": "cell-based, human", "settings": "stably transfected HepG2 cells, luciferase induction; one range stated for the listed examples together; read-out: effect in the T3 promoter assay cell test", "description": "The activity of the compounds according to the invention can be tested, for example, in vitro using the T3 Promoter Assay Cell test, which is described below:\nThe test is carried out using a stably transfected human HepG2 hepatocarcinoma cell which expresses a luciferase gene under the control of a thyroid hormone-regulated promoter. The vector which is used for the transfection carries a minimal thymidine kinase promoter, containing a thyroid hormone-responsive element (TRE) which consists of two inverted palindromes of in each case 12 bp and an 8 bp spacer, upstream of the luciferase gene.\nFor the test, the cell cultures are sown, in Eagle's minimal essential medium containing the following additions: glutamine, tricine [N(tris-(hydroxymethyl)-methyl)glycine], sodium pyruvate, non essential amino acids, (L-Ala, L-Asn, L-Asp, L-Pro, L-Ser, L-Glu, Gly), insulin, selenium and transferrin, in 96-well plates. The cultures are grown for 48 hours at 37° C. and under a 10% CO2 atmosphere. […] In order to determine the luciferase which is induced by T3 or other substances, the cells are then lyzed by adding a buffer containing Triton and luciferin (from Promega) and immediately measured luminometrically.", "note": "Some of these results come from one statement about several compounds together."}
{"substance": "Ethyl 4,6-dibromo-5-(4-hydroxy-3-isopropylphenoxy)benzofuran-2-carboxylate and 4,6-dibromo-5-(4-hydroxy-3-isopropylphenoxy)benzofuran-2-carboxylic acid [Example 15]", "values": [{"measurement": "EC50", "result": "0.5 to 240", "unit": "nM"}]}
